Measurements from patent US7468255B2, “Method for assaying for natural killer, cytotoxic T-lymphocyte and neutrophil-mediated killing of target cells using real-time microelectronic cell sensing technology” (ACEA Biosciences, priority 2002, dated 2008).
Like-named read-outs stand apart in the source and are kept apart here.

How the values were obtained:
Test in all cases: cells
NIH3T3 = details: Mus musculus, NIH3T3, 48 h, read-out: IC-50, RT-CES
HUEVEC [1] = details: 48 h, read-out: IC-50, MTT Assay
HUEVEC [2] = details: 48 h, read-out: IC-50, RT-CES
HT1080 = details: Homo sapiens, HT-1080, 48 h, read-out: IC-50, RT-CES

## CC/C(=C(\c1ccccc1)c1ccc(OCCN(C)C)cc1)c1ccccc1 [Tamoxifen]
NIH3T3
  IC50: 16 µM
HUEVEC [1]
  IC50: 8 µM
HUEVEC [2]
  IC50: 7.5 µM
HT1080
  IC50: 2.4 µM
